Test results from publication PMC10226619.
Results are given in words; binding and its absence hold for the method and conditions named. Some binding calls cover weakened binding; strength is not graded here. Tags and fused reporters may be left off the sequences shown. Values belong to the binder of their own block, whether it stands above or below them.

Biological target: T1, Ada3 with a hexahistidine tag (recombinant) (Saccharomyces cerevisiae) (UniProt P32494)
T1 sequence: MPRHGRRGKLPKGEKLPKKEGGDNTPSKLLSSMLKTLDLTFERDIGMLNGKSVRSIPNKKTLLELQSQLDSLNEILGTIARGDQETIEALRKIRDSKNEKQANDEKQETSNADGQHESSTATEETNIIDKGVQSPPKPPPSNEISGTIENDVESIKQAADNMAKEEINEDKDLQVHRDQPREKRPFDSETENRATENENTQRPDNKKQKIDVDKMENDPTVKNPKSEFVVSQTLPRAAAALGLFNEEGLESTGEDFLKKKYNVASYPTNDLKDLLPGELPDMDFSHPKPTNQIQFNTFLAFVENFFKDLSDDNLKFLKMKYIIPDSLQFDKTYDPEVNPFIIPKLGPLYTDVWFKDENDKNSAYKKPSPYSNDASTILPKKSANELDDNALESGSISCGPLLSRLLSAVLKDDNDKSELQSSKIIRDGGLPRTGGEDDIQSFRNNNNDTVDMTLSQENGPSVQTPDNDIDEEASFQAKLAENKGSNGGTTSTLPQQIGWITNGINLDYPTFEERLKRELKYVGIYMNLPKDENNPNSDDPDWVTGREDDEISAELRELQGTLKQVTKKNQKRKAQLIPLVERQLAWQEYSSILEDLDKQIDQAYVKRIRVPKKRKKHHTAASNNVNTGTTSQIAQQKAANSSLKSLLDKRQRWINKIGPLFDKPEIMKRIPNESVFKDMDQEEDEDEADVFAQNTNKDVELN
Assay: co-purification (Ni-NTA, anion exchange); Gcn5, Ada2 (WT or ΔSWIRM) and His-tagged Ada3 co-expressed in E. coli; batch Ni-NTA by the hexahistidine tag on Ada3, then Source Q

- binding: binds
B1: Ada2 (wild type, recombinant) (protein, UniProt Q02336 1-434)
chain: MSNKFHCDVCSADCTNRVRVSCAICPEYDLCVPCFSQGSYTGKHRPYHDYRIIETNSYPILCPDWGADEELQLIKGAQTLGLGNWQDIADHIGSRGKEEVKEHYLKYYLESKYYPIPDITQNIHVPQDEFLEQRRHRIESFRERPLEPPRKPMASVPSCHEVQGFMPGRLEFETEFENEAEGPVKDMVFEPDDQPLDIELKFAILDIYNSRLTTRAEKKRLLFENHLMDYRKLQAIDKKRSKEAKELYNRIKPFARVMTAQDFEEFSKDILEELHCRARIQQLQEWRSNGLTTLEAGLKYERDKQARISSFEKFGASTAASLSEGNSRYRSNSAHRSNAEYSQNYSENGGRKKNMTISDIQHAPDYALLSNDEQQLCIQLKILPKPYLVLKEVMFRELLKTGGNLSKSACRELLNIDPIKANRIYDFFQSQNWM

- binding: binds
B2: Ada2 ΔSWIRM (without amino acids 349–434, recombinant) (protein, UniProt Q02336)
chain: MSNKFHCDVCSADCTNRVRVSCAICPEYDLCVPCFSQGSYTGKHRPYHDYRIIETNSYPILCPDWGADEELQLIKGAQTLGLGNWQDIADHIGSRGKEEVKEHYLKYYLESKYYPIPDITQNIHVPQDEFLEQRRHRIESFRERPLEPPRKPMASVPSCHEVQGFMPGRLEFETEFENEAEGPVKDMVFEPDDQPLDIELKFAILDIYNSRLTTRAEKKRLLFENHLMDYRKLQAIDKKRSKEAKELYNRIKPFARVMTAQDFEEFSKDILEELHCRARIQQLQEWRSNGLTTLEAGLKYERDKQARISSFEKFGASTAASLSEGNSRYRSNSAHRSNAEYSQNYSEN
